Our source for the binding values is PMC8546674.

No constants are given. Whether binding was seen depends on the method and setting. Binding seen in cells or lysates may run through a third protein. A result given as binding can be weak or reduced; the word gives no strength. For some of these results: Where a sequence is shown, tags or fusion partners need not be part of it.

Assay [1] addresses T1, His6-CotY (B. cereus) (UniProt Q6Y3A5).
T1 sequence: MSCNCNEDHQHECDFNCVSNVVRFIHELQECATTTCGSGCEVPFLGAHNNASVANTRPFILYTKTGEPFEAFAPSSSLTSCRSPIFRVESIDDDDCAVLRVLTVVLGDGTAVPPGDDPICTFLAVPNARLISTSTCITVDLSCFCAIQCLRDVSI
As to the kind of experiment: pull-down; heterologous coexpression in E. coli BL21(DE3) (pETDuet system); lysate on Ni2+ beads, washes w1-w3, elutions E1-E3; immunoblot with anti-CotE and anti-His6 antibodies. On the technique in general: In western blotting, separated proteins are transferred to a membrane and probed.

For assay [2], the target named is T2, His6-ExsY (B. cereus) (UniProt Q7WTL8).
T2 sequence: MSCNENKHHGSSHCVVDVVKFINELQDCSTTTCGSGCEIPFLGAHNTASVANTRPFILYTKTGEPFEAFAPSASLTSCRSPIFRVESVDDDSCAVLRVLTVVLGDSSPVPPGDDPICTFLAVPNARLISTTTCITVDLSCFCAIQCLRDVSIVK
The description is as above.

Assay [3] concerns the target T3, CotY-SNAP (in the exsY mutant of ATCC 10876) (B. cereus ATCC 14579) (UniProt Q6Y3A5).
T3 sequence: T1 sequence
In words: pull-down; SNAP capture resin; whole-cell extracts of sporulating exsY mutant cells producing CotY-SNAP, hours 0, 24, 28, 48 and 72; immunoblot with anti-CotE and anti-SNAP antibodies.

The target in assay [4] is T4, ExsY-SNAP (B. cereus) (UniProt Q7WTL8).
T4 sequence: T2 sequence
As to the kind of experiment: pull-down; SNAP capture agarose beads (covalent capture of the SNAP fusion); whole-cell extracts of sporulating B. cereus WT cells producing SNAP fusions, hours 20, 24, 48, 72 at 20°C, and extracts of purified spores; immunoblot with anti-CotE or anti-SNAP antibodies.

On to CotE (produced in E. coli) (B. cereus), for which the binding result in assay [1] is on record as “binds weakly”; in assay [2] it was “binds”.
CotE (in the exsY mutant of ATCC 10876): the binding result in assay [3] is recorded as “binds”.
For the substance “CotE (B. cereus (endogenous in ATCC 14579))”, the binding entry in assay [4] is “binds”.
